# From PubChem BioAssay AID1347423 (Functional Genomics Laboratory (NCATS/FGL), 2020)
# Screen size: about 52,000 sequences; about 210 (0.4%) were called active.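 Rule for the calls: active = gene whose silencing raises cell survival under the drug, median off-target-corrected z-score across its silencing RNAs 2 or more; inactive = the rest.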 This is one part of the list.
# Assay: Resistance to Poly (ADP-Ribose) Polymerase inhibitor: Gene Identification via Genome-wide siRNA Screen
# Details: mouse BRCA2 R2336H ES cells, olaparib, CellTiter-Glo viability; hits give high values
# Summary of the method: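 Mouse BRCA2 R2336H ES cells were reverse-transfected with siRNA (20 nM final), treated at 48 h with 500 nM olaparib, and read by CellTiter-Glo after 72 h. Scores: MAD-based z per siRNA, median per gene, seed off-target correction.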
row,Sequence,z-score
1,GGCUUCUAAUCAGAUCAGCTT against D230037D09Rik,inactive: -0.177
2,GCUCUUACAUAGAACUUUGTT against Tpbg,inactive: -0.882
3,GGUGGAGUUUCUGAAACAGTT against Supt16h,inactive: -3.27
4,GCACUUACCAGUAUGCGCUTT against Ppp1r16b,inactive: 1.92
5,GCGCAAUAAUCAGACGGUUTT against Zhx2,inactive: -2.08
6,CCUUUGAACCUCUAACUUUTT against Xpnpep1,inactive: -0.177
7,GGAGCCAGCUCUCAAUGAATT against Psme1,inactive: -2.48
8,GGAAAGUGGUGCAUGACUATT against Sfxn1,inactive: 0.484
9,CCACUGUGUGACAUUAAAGTT against Metap2,inactive: -0.389
10,GCACACAUGUAGUCUUAUATT against Harsl,inactive: -0.274
11,GGACUUUGUAUAUUGGUUUTT against Ets2,inactive: -0.869
12,CCUUGUACAACAAUGGUGCTT against Git2,inactive: 0.014
13,GCAAAUCAUUUAGGACCCATT against 2600011E07Rik,inactive: -1.45
14,GCAGAUUUACCCUCUAUAATT against Peli2,inactive: 0.331
15,GGUGUCAGAACACAUCGCATT against Sepp1,inactive: 0.294
16,GGAAAAGUUCUUAAUGGAGTT against 5730453I16Rik,inactive: 1.08
17,GUUUGAGGACUUGGAGGUGTT against Znrf4,inactive: 0.882
18,GCUGUUACAGACCUGUUUCTT against 1500019G21Rik,inactive: 1.54
19,GGAAUACGAAGAGAUUAUATT against Zw10,inactive: -0.165
20,GAAGAUCCACUUCAUCGCCTT against Psmb10,inactive: -1.82
21,GGUGCUGAUGGGAGAUAGUTT against 1700010H22Rik,inactive: -0.146
22,CCACUUAAAAUUCAUUCCUTT against Arl6ip1,inactive: 1.22
23,GGACAAUGCUGUGACCUCUTT against Amn,inactive: -0.106
24,GGCCACUCUUCUAGUGCAUTT against BC037095,inactive: -0.471
25,UUAAGCCGCUUUUGAAGCUTT against Olfr1200,inactive: -1.52
26,GGCUGAUAAGGCUAAGUACTT against 5430432M24Rik,inactive: -0.887

row,Sequence,z-score
1,GUUUUGGAACUUGUGAUGATT against Expi,inactive: 1.31
2,CCCUCCUCUGUUGGAUCUUTT against Olfr912,inactive: -2.44
3,GGAUCAUGCAGACAUGCUGTT against Ggcx,inactive: -0.92
4,GCCUUAAGUGGAUUUAGGATT against Hist1h2ae,inactive: 1.22
5,GGAACUCUUUCUUCCAUGUTT against Olfr1495,inactive: -0.54
6,CCCGUCCUGCUAAAUGGUGTT against Usp42,inactive: -0.738
7,GCAAUGGUUCAGUAUGUACTT against 5730494M16Rik,inactive: -0.902
8,GCUUUGGUGCACUUGCUUUTT against Akr1c13,inactive: -0.103
9,GGAUGAUGGUGUCUACUCUTT against Fibcd1,inactive: -1.85
10,GGAACAUCUGCAUCUGGAUTT against AL024210,inactive: 1.37
11,GGGUAAUGCUGACUACAGGTT against MGC65590,inactive: -1.89
12,GGCAGAGAUGCUUUAUAAATT against Harsl,inactive: -0.48
13,GGAUAUCCGCCUCACUCUUTT against 2010204I15Rik,inactive: -0.045
14,GGAUAUCUGUUGCAUGGCATT against 5730444A13Rik,inactive: -2.31
15,GGUUGGAGUUGAUUUUAAUTT against Zmym1,inactive: 0.101
16,GCAGAUGACCAUUGGUUAATT against 2610301B20Rik,inactive: -0.36
17,GCCCUUUGGAUAACAGUGATT against Sufu,inactive: -0.968
18,CGAUAUCUCGAAAAUUUCATT against 1500002I11Rik,inactive: 0.325
19,GCUUGUGAAUUAAUGAACATT against Farslb,inactive: -2.89
20,CGAAGUUAUGCCCAGAAUGTT against 2010321M09Rik,inactive: 0.0597
21,GCAACUCAAUGACCUGAAATT against Ifnab,inactive: -2.91
22,GGGUCUCAAAAGAGCAGGUTT against Neurl,inactive: 0.913
23,GCGAAUAAACCACUUGUUGTT against Pum2,inactive: 0.225
24,GGAAUUUCAAAGAGACAAATT against Cyfip1,inactive: -0.82
25,GGGUCCAGUUUAAGACAUATT against Lypla2,inactive: -1.59
26,GCGUGAUCAUUGAUGUGGATT against Slc5a7,inactive: -0.93

row,Sequence,z-score
1,GGAGAUGAAGCUCUGGAUATT against Spock2,inactive: -0.176
2,GGAAAUGUUUACCUGCCAUTT against Zfp512,inactive: -0.832
3,GGACGAAAAGAAGUGUUUCTT against Lamb2,inactive: 1.41
4,GGAACUCUGGAAUAAUCUGTT against Siat7b,inactive: -0.907
5,GCCCGGUCCUUUACUACAUTT against Sdk1,inactive: -0.266
6,CGUACAGAGACAUCUUGAUTT against 5133401N09Rik,inactive: 0.587
7,GGAACCAGGUAGCAGAUCUTT against D19Ertd144e,inactive: -3.39
8,GGUAAAAAGUACAAGUGGGTT against Slc17a5,inactive: 1.76
9,CCAUGCGAAAGAGUAUAAATT against BC060632,inactive: -0.343
10,CCAAUAGAGAAACUUUCUCTT against 1110008L20Rik,inactive: -0.39
11,GGCUGAGAAGACUUUCAGUTT against Trappc4,inactive: -0.332
12,CGCCAGAAAGCUUCUAUGATT against Gucy2c,inactive: 1.84
13,GCUAUCGGACUGUGUGCUGTT against Rpl41,inactive: -1.14
14,GGAGAAUGUGGCUUCCUGATT against Clrf,inactive: -0.333
15,CCAUAUGUGCUCACCUUUATT against Marveld2,inactive: 0.264
16,AUCGUGUUUGCUGUAUUUGTT against Olfr1258,inactive: -0.0864
17,GGUCCCAGAAAGUAGGCAUTT against Prss22,inactive: 0.579
18,GGAACUUAUCCUUCUUAGATT against Olfr713,inactive: 0.867
19,GGUAAAUGAGAUCAACUUCTT against Dvl3,inactive: 1.17
20,GGAUACAGGAGGAAGAAAATT against AW319487,inactive: -0.203
21,CCUGCGCUUCUGACUAUCUTT against Dcbld1,inactive: -0.234
22,GGGCAAGAAGGUAGACAUUTT against 0610010D20Rik,inactive: -1.55
23,GGCUUUAAGGCUAGCAGUUTT against Pex11a,inactive: 1.24
24,GGAGACUUAUUGAGCAAGUTT against E430004F17Rik,inactive: 0.366
25,GGUCGUGUUCGAGCAAACCTT against Tpi1,inactive: 1.03
26,CGUGUAGAUUACAAGAAUGTT against Mrps18c,inactive: -0.303

# A different layout for part of the listing above:
row	Sequence	z-score
4	GGAACUCUGGAAUAAUCUGTT against Siat7b	inactive: -0.907
13	GCUAUCGGACUGUGUGCUGTT against Rpl41	inactive: -1.14
19	GGUAAAUGAGAUCAACUUCTT against Dvl3	inactive: 1.17
22	GGGCAAGAAGGUAGACAUUTT against 0610010D20Rik	inactive: -1.55

# Further entries

row,Sequence,z-score
1,GGCCUGAACACACUGACAATT against 1200008A14Rik,inactive: -1.14
2,GGUAGUCUCUGCCACCAAUTT against Mrps11,inactive: -2.5
3,CGUACCAUGGUCAAGACGUTT against Tpcn1,inactive: 1.09
4,GCACAGUGGUAAUUCUUUATT against Snapc3,inactive: 1.41
5,GGAAGACCUGAACAAACUGTT against 1500031L02Rik,inactive: -0.242
6,GGUGGAAGUGAAGAAGCGATT against AV216087,inactive: -1.03
7,GGUAUGAUGCACUUUCUGATT against Zhx1,inactive: 0.455
8,GCCCAUUGACGUAAUUCUCTT against V1ri3,inactive: -0.182
9,GGAACAUACUGCUAAUAUGTT against C6.1A,inactive: -0.509
10,GUUUUCAGAGCUCUGCAUUTT against 2610510H03Rik,inactive: 0.0133
11,GGAGAGUAUCUGAAGUUUCTT against Jak2,inactive: 1.31
12,GCCGACAAGAGAUACAUGATT against 1600013P15Rik,inactive: -0.0259
13,GGUGGACUCUGACAUAACATT against Iigp1,inactive: 0.698
14,GGAGGUAGAGGAGUUGGAGTT against Zyx,inactive: -1.83
15,GGCUCACAGUUACCAUCUCTT against Lipe,inactive: 0.275
16,GCAUAUUGGAACUACUGGGTT against Olfr986,inactive: -0.929
17,GCCACAGGAUGCUAGCAAATT against Bex2,inactive: -0.617
18,CGUGGUGAUUAUGCUUCUATT against Rab37,inactive: 0.706
19,GCCAUAGGAGUGAUUGGAUTT against E130018O15Rik,inactive: -0.35
20,GGCGACAUGAAAGAAGGCATT against Prss18,inactive: -1.27
21,GCCAUAUGAUAAUAUAGAGTT against AI595338,inactive: 0.747
22,GCUCAUCAAGCUGUACCUATT against Eif2b1,inactive: -0.0934
23,CUUAGCUACUUCAAGGUCATT against C630041L24Rik,inactive: 0.262
24,GGAUGCCUAUCACAAGCAGTT against Pacsin1,inactive: 1.33
25,GCCACACGUGUGCAAAGAUTT against Zfp524,inactive: 0.61
